{"source": "patent US8530680B2", "about": "“System and method for controlling growth of microorganisms with brominated furanones” (Syracuse University, priority 2008, dated 2013)", "test_system": "C. albicans strain SC5341 gene expression", "test": "DNA microarray gene expression of C. albicans after BF1 treatment", "type": "cell-based, Candida albicans", "settings": "3 μg/mL BF1, 45 minutes", "experimental": "An overnight culture of C. albicans strain SC5341 grown in SD medium was sub-cultured in 25 mL of the same medium to an initial OD600 of 0.005 and grown till the OD600 was 1.0. The culture was diluted using fresh SD medium to a volume of 100 mL with an initial OD600 of 0.6, and it was grown till the OD600 reached 1.0, which took approximately 2 hours. Then the culture was split into two equal portions, with 3 μg/mL of BF1 added to the first one and the same amount of ethanol added to the second one to eliminate the effects of ethanol. […] Forty-five minutes after BF1 addition, the cells were harvested by centrifugation at 13,200 rpm at 4° C. for 30 sec and stored at −80° C. until RNA isolation. To lyse the cells, 1.5 mL of Trizol reagent (Invitrogen® Co., Carlsbad, Calif.) and 0.5 mL of 0.5 mm glass beads were added to the frozen tubes containing C. albicans cell pellets. […] The extracted RNA was further cleaned up using an RNeasy mini-kit (QIAGEN® Inc., Valencia, Calif.), including on-column DNA digestion with RNase-free DNase I. The RNA yield was quantified by OD260 reading, and the RNA integrity was checked, using agarose gel electrophoresis. […] The data were analyzed using Genespring GX version 7.3 (Agilent Technologies®, Santa Clara Calif.). […]"}
{"smiles": "CCCCC1=C(Br)/C(=C/Br)OC1=O", "note": "[BF1, 4-bromo-5Z-(bromomethylene)-3-butylfuran-2-one]", "values": [{"measurement": "number of genes repressed by at least 1.5-fold", "value": 21}, {"measurement": "total number of genes significantly modulated (P≦0.05)", "value": 54}]}
